For 28 targets, melting temperature shift results are on record in the supplement of paper PMC12595434, “Development of retinoid nuclear receptor pathway antagonists through targeting aldehyde dehydrogenase 1A3” (iScience, 2025).

Sequences of proteins named here, by UniProt entry; tags and fusion partners are left off. A change or cut given only in a name is not applied to a line headed by its entry.
UniProt Q92551: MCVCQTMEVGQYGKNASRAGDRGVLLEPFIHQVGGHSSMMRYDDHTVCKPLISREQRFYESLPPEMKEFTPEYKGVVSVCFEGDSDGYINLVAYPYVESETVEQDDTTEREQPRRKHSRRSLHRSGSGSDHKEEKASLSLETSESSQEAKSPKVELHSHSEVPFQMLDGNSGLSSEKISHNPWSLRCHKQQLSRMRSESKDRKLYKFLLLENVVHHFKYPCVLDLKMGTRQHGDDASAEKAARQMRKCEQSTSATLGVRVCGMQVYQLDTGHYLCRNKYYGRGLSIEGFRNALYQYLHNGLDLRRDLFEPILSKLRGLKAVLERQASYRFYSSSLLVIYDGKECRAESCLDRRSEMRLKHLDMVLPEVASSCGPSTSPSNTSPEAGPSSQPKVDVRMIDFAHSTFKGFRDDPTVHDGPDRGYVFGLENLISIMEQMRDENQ
UniProt Q96E11: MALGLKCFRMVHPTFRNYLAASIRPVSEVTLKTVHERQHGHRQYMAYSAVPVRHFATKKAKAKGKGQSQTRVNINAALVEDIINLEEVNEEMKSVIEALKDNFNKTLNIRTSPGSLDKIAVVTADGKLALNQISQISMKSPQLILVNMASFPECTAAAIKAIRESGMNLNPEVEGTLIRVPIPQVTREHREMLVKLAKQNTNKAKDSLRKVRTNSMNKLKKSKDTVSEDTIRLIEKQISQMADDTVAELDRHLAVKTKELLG
UniProt Q96CW5, whole entry: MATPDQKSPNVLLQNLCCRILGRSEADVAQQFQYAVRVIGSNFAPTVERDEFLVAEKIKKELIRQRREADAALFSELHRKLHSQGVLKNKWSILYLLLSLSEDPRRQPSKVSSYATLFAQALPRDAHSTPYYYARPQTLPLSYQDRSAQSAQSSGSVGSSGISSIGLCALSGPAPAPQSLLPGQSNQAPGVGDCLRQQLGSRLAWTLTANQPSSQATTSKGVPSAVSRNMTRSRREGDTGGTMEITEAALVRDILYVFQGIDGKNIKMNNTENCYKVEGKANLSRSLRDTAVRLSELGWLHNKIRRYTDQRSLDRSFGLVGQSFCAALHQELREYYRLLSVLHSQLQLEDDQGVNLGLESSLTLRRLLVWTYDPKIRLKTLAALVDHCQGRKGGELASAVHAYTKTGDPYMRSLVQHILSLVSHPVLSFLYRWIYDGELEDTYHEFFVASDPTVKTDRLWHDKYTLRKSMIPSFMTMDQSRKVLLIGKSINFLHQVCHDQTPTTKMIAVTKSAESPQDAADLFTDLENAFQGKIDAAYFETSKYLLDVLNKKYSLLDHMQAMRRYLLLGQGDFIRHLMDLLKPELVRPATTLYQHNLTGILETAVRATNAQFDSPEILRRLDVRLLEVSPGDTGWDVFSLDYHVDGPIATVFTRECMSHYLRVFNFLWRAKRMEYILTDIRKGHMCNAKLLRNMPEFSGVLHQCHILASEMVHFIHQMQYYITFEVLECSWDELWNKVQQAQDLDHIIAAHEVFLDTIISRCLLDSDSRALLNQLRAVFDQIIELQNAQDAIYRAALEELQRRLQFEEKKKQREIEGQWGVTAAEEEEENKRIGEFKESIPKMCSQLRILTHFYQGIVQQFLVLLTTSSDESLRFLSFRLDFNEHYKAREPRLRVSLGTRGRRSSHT
UniProt Q92930: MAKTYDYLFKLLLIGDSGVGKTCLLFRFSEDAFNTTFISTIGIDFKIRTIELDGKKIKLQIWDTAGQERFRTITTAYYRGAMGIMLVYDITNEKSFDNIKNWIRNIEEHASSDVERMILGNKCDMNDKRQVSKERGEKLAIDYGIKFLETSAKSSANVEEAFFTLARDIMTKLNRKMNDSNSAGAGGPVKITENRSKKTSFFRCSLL
UniProt Q8WY22: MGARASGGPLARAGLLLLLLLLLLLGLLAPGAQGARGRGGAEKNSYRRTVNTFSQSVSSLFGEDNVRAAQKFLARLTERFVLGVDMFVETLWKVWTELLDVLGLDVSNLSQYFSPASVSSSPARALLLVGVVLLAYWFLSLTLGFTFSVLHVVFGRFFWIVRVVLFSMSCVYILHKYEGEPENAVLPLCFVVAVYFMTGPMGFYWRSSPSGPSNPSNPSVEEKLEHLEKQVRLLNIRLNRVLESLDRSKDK
UniProt Q8WYP5: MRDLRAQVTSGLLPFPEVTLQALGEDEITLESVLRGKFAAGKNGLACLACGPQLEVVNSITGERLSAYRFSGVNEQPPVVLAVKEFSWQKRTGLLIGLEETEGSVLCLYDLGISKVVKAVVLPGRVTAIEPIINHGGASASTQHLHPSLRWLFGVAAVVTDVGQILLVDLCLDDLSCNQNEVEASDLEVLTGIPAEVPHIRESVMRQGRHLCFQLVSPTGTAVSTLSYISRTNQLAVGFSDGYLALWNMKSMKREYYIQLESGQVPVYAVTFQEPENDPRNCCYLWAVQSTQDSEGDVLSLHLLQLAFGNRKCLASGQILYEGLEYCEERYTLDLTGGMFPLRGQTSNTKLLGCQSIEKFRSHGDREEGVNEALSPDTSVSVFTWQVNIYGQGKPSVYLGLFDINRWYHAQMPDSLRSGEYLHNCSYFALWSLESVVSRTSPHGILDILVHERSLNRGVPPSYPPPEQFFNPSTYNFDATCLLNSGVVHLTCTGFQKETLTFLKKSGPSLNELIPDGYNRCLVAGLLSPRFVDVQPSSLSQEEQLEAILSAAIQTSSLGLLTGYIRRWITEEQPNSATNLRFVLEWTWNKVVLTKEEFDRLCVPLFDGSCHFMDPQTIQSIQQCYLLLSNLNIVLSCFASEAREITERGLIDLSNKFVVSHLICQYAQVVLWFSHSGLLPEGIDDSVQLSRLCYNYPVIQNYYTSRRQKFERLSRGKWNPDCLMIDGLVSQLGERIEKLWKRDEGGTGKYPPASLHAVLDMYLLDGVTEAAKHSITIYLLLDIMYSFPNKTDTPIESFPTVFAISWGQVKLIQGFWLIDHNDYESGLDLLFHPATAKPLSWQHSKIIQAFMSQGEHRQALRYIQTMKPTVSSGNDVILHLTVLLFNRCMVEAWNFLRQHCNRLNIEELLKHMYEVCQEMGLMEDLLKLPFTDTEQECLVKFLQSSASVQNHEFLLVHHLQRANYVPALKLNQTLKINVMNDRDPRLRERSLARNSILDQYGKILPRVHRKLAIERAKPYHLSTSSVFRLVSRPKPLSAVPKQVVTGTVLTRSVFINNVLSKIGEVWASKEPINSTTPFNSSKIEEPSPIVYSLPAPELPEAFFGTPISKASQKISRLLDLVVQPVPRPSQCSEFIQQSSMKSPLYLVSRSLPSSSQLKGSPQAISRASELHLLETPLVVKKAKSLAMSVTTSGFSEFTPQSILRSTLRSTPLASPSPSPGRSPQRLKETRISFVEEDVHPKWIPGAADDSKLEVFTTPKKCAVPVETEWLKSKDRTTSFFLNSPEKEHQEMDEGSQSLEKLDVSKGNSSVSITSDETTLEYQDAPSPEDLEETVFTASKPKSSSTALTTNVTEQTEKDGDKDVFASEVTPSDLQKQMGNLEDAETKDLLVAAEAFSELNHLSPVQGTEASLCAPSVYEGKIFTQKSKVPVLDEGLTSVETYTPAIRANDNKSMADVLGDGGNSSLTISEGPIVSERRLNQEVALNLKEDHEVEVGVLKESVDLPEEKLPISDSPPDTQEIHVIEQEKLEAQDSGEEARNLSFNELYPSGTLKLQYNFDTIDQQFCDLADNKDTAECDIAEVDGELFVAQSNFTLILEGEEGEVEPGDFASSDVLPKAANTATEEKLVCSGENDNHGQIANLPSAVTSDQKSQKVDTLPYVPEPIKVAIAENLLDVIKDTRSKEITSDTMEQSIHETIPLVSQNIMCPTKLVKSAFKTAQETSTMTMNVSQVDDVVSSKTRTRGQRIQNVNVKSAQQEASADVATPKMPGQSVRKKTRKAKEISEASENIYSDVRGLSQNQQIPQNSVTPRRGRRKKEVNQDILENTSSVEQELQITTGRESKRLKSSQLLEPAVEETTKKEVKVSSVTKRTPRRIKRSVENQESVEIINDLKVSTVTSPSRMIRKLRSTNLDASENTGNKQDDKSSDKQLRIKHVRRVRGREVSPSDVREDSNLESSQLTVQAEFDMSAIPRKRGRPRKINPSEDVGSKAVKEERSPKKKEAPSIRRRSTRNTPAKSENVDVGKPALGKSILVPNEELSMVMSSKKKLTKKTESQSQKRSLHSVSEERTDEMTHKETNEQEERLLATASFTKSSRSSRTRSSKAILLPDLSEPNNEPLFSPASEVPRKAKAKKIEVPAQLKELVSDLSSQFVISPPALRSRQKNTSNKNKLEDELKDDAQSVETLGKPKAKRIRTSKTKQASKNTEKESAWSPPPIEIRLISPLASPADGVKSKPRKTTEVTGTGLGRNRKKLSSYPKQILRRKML
UniProt Q96CW1: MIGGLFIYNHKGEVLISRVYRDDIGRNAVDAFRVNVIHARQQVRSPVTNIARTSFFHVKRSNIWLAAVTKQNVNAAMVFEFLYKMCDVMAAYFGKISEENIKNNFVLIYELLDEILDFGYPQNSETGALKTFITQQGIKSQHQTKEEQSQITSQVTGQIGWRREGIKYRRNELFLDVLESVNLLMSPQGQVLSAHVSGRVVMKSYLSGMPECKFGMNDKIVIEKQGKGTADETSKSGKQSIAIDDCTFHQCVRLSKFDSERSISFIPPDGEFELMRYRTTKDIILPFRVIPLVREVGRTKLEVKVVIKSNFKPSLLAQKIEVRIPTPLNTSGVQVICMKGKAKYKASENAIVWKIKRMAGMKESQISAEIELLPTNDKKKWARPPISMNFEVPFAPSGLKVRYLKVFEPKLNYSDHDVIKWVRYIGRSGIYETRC
UniProt Q96BI3, whole entry: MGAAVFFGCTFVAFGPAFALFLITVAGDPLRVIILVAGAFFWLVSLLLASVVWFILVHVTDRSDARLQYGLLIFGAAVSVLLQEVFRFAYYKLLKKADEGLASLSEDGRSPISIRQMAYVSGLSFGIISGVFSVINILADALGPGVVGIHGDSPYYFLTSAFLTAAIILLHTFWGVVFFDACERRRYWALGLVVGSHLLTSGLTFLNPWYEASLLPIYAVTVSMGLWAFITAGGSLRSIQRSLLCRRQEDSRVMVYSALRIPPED
UniProt Q92581: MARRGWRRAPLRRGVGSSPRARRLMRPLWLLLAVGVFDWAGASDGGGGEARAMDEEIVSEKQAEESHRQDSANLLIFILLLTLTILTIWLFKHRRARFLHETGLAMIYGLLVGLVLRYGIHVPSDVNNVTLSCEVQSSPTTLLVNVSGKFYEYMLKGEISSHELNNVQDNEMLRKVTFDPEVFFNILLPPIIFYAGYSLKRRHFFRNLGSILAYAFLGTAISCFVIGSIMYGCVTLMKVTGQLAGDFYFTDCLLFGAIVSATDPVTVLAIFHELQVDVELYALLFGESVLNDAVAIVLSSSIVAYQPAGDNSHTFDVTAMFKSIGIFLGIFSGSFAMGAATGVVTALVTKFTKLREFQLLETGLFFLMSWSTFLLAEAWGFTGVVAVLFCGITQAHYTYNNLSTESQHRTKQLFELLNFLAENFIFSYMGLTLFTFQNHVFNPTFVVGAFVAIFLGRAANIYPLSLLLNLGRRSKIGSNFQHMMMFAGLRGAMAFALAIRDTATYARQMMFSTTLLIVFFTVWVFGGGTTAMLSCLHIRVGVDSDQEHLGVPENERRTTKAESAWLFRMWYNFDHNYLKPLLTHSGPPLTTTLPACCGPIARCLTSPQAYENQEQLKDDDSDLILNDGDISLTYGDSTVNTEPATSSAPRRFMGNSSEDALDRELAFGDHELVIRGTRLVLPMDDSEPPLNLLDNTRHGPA
UniProt Q92542, whole entry: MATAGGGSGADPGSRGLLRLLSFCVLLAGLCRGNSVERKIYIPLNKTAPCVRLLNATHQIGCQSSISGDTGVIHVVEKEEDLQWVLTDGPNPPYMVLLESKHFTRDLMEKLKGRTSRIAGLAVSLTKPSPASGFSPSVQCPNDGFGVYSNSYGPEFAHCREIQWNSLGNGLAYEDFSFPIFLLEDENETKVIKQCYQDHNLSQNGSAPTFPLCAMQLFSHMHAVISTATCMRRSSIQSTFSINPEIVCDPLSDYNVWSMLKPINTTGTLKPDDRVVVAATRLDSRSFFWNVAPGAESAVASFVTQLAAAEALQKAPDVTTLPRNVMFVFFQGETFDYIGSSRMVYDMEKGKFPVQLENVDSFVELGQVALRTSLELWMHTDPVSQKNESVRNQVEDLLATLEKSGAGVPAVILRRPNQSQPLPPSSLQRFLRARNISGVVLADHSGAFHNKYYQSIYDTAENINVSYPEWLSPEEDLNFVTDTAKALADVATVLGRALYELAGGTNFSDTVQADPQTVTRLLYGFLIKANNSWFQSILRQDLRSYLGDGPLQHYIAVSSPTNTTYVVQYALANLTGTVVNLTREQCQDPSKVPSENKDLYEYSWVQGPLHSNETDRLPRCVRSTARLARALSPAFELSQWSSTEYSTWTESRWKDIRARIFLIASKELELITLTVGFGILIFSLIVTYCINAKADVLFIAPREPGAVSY

Compound in this experiment: CCc1cnccc1C(=O)Nc1cc2c(cc1F)NC(=O)CC2
Briefly: melting temperature shift (DMSO Tm minus MBE1-treated Tm) in cellular thermal proteome profiling; higher = less thermal stabilization by MBE1 (negative = stabilized by MBE1). Particulars: A375.

The list shows a part of the results. The data scatter; read single values as rough.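 Many melting curves are irregular; where none melted, Tm was taken as 64 °C.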

As for AIDA (UniProt Q96BJ3), the melting temperature shift (MBE1 concentration: 100 nM) is 1.33 °C and the melting temperature shift (MBE1 concentration: 1 uM) was 0.275 °C. In the case of IP6K1 (UniProt Q92551), the melting temperature shift was -0.992 °C (MBE1 concentration: 100 nM) and 0.287 °C (MBE1 concentration: 1 uM).

Turning to ATG2B (UniProt Q96BY7), the melting temperature shift was -1.51 °C (MBE1 concentration: 100 nM) and 0.912 °C (MBE1 concentration: 1 uM). On the same counts, the results for UniProt Q92560 are 2.9 °C and 1.73 °C.

For the target SLC7A6 (UniProt Q92536), the melting temperature shift (MBE1 concentration: 100 nM) came to 2.14 °C. As for ABCC2 (UniProt Q92887), the melting temperature shift was -0.57 °C (MBE1 concentration: 100 nM) and -0.287 °C (MBE1 concentration: 1 uM). Consider NSMAF (UniProt Q92636), for which the melting temperature shift runs as follows: (MBE1 concentration: 100 nM) -0.415 °C; (MBE1 concentration: 1 uM) 0.281 °C. On the same counts, the results for TNPO1 (UniProt Q92973) are 0.8 °C and 0.165 °C. UniProt Q8WYH8: the melting temperature shift (MBE1 concentration: 100 nM) is 1.02 °C and the melting temperature shift (MBE1 concentration: 1 uM) was -0.122 °C.

Regarding UniProt Q96C34, the melting temperature shift (MBE1 concentration: 1 uM) is -0.65 °C. Take UniProt Q96A73: the melting temperature shift runs as follows: (MBE1 concentration: 100 nM) -2.33 °C; (MBE1 concentration: 1 uM) 0.575 °C.

For UniProt Q96E09, for the setting “MBE1 concentration: 100 nM”, the melting temperature shift is -3.31 °C. On to MRRF (UniProt Q96E11), for which the melting temperature shift is, setting by setting: (MBE1 concentration: 100 nM) -0.104 °C; (MBE1 concentration: 1 uM) -0.385 °C.

Regarding TUBGCP3 (UniProt Q96CW5), the melting temperature shift by setting is: (MBE1 concentration: 100 nM) 0.891 °C; (MBE1 concentration: 1 uM) 0.507 °C. In the case of ARHGEF1 (UniProt Q92888), the melting temperature shift was -0.635 °C (MBE1 concentration: 100 nM) and -0.574 °C (MBE1 concentration: 1 uM).

With RAB8B (UniProt Q92930), the melting temperature shift is -1.72 °C (MBE1 concentration: 100 nM) and -3.91 °C (MBE1 concentration: 1 uM). Turning to MAML1 (UniProt Q92585), for the setting “MBE1 concentration: 100 nM”, the melting temperature shift came to 1.72 °C.

Consider UniProt Q969X1, for which the melting temperature shift (MBE1 concentration: 100 nM) is -2.32 °C.

For the target GBF1 (UniProt Q92538), the melting temperature shift (MBE1 concentration: 100 nM) was 0.586 °C and the melting temperature shift (MBE1 concentration: 1 uM) was determined as 0.00611 °C. On the same counts, the results for AKT1S1 (UniProt Q96B36) are -0.919 °C and 0.458 °C. As to BRI3BP (UniProt Q8WY22), the melting temperature shift (MBE1 concentration: 1 uM) was -0.708 °C. On to UniProt Q8WWQ0, for which the melting temperature shift runs as follows: (MBE1 concentration: 100 nM) -0.168 °C; (MBE1 concentration: 1 uM) -2.04 °C. The matching figures for UniProt Q96AB6: -0.11 °C and 0.232 °C. The matching figures for UniProt Q8WYP5: 0.409 °C and 0.525 °C. On the same counts, the results for AP2M1 (UniProt Q96CW1) are -0.594 °C and 0.148 °C.

Regarding APH1A (UniProt Q96BI3), the melting temperature shift (MBE1 concentration: 1 uM) is -0.165 °C. The same measure, in the same setting: the same measure for SLC9A6 (UniProt Q92581): -4.82 °C; for NCSTN (UniProt Q92542): -3.62 °C.
